# Data source: PubChem BioAssay AID652259 (Drosophila RNAi Screening Center, 2013)
# Test: 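Knock-downs that push a Wingless-driven reporter up or down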 (primary screen)
# Cells: Drosophila clone 8 imaginal disc epithelial cells
# Reagent: long dsRNA against Drosophila genes
# Treatment: pathway stimulated by co-transfected Wingless expression plasmid
# Measured: 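Firefly luciferase from a tcf-site Wingless reporter, measured alongside co-transfected Renilla luciferase that tracks transfection; pathway stimulated by a Wingless plasmid; the firefly-to-Renilla ratio is not deposited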
# Direction: firefly reporter light: higher = more Wg reporter light, before normalisation; Renilla control light: higher = more transfected or surviving cells
# Call rule: 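a knock-down is a candidate when at least two out of four statistical tests show it departing from its plate mean; one test alone signals a weak candidate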
# Calls: active = candidate regulator (raises or lowers reporter); inactive = not a candidate
# The deposit covers about 22,000 reagents; this is an unselected part of those with a known target gene and a result. Over the whole deposit, 233 (1.1%) got an active call. 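Light values are raw, unnormalised plate reads; the ratio scores behind the reporter calls were not deposited.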 A plus sign joins genes that one reagent is predicted to hit. No sequences are given here. Not stated in the record: the amount of reagent, the time to read-out, the dose of the treatment.
target gene,dsRNA,"reporter change call, replicate 1","firefly reporter light, replicate 1","firefly reporter light, replicate 2","Renilla control light, replicate 1","Renilla control light, replicate 2",call
Fip1,DRSC12147,,4237,,2844,,inactive
Lsd-2,DRSC20143,,2502,11802,971,4048,inactive
CG13991,DRSC02323,,2482,5525,968,2352,inactive
CG4210,DRSC15551,,8149,,2908,,inactive
Osi17,DRSC12284,,8598,,1770,,inactive
CG4822,DRSC00669,,9988,,2935,,inactive
CG3347,DRSC00597,,2534,8381,1125,2960,inactive
Cad74A,DRSC10636,,7562,,3045,,inactive
Fkbp39,DRSC16667,Wg reporter activity lowered,2336,,1641,,active
RapGAP1,DRSC02293,,2162,5536,196,2837,inactive
RapGAP1,DRSC02294,,2492,5408,457,2560,inactive
RapGAP1,DRSC02295,,2205,6122,360,3082,inactive
RapGAP1,DRSC03406,,11201,,4400,,inactive
CG2641,DRSC15441,,11074,,2296,,inactive
CG33937 (retired record),DRSC15148,,12691,,3408,,inactive
CG5068,DRSC10476,,5452,,2038,,inactive
Cpr47Eg,DRSC07330,,4681,,2269,,inactive
Ugt49C1,DRSC04252,,2341,5184,589,2297,inactive
Cby,DRSC14591,,37417,,7093,,inactive
CG31198,DRSC15891,,2626,7366,1285,2069,inactive
He + NimB5,DRSC22876,,7.95e5,8.94e5,4.38e5,3.29e5,inactive
SmE,DRSC02680,,1577,5323,515,1761,inactive
CG3253,DRSC04350,,18843,7.62e5,7192,4.08e5,inactive
AnxB11,DRSC19331,,1453,5463,919,2440,inactive
Slc45-1,DRSC10427,,1511,9651,1084,4304,inactive
CG17528,DRSC07761,,5562,,2760,,inactive
miple2,DRSC08723,,5804,,2320,,inactive
alpha-Est2,DRSC12614,,15152,,3331,,inactive
Atg4a,DRSC00656,,10102,,3348,,inactive

In a second layout: 2 of the entries above
{"target gene":"Ugt49C1","dsRNA":"DRSC04252","firefly reporter light, replicate 1":2341,"firefly reporter light, replicate 2":5184,"Renilla control light, replicate 1":589,"Renilla control light, replicate 2":2297,"call":"inactive"}
{"target gene":"Cby","dsRNA":"DRSC14591","firefly reporter light, replicate 1":37417,"Renilla control light, replicate 1":7093,"call":"inactive"}
